The source gives many values for each of these; only a part stands here.
System: HEK293T nuclear lysates
Test: SILAC‐based pull‐down proteomics H4K5acK8ac/H4K5 (probes 8/5)
Format: binding, human
Conditions: for B6 log2 (H4K5ac8ac/H4K5): run B6; for A6 log2 (H4K5ac8ac/H4K5): run A6
[1] = pulled-down protein FAM76B (F5GX09)
[2] = pulled-down protein FBXO22 (H3BTH6)
[3] = pulled-down protein FHL3 (Q13643)
[4] = pulled-down protein HSD17B10 (Q99714)
[5] = pulled-down protein LMNA (P02545)
[6] = pulled-down protein LRRC40 (Q9H9A6)
[7] = pulled-down protein MSH2 (P43246)
[8] = pulled-down protein MSH3 (A0A590UKC9)
[9] = pulled-down protein MYBL2 (P10244)
[10] = pulled-down protein NDRG1 (Q92597)
[11] = pulled-down protein NIPBL (A0A590UJS4)
[12] = pulled-down protein NTHL1 (P78549)
[13] = pulled-down protein NUDC (Q9Y266)
[14] = pulled-down protein NUDCD1 (Q96RS6)
[15] = pulled-down protein ORC3 (Q9UBD5)
[16] = pulled-down protein PAXIP1 (Q6ZW49)
[17] = pulled-down protein PCBP1 (Q15365)
[18] = pulled-down protein PFAS (O15067)
[19] = pulled-down protein PLS3 (A0A0A0MSQ0)
[20] = pulled-down protein PPIA (P62937)
[21] = pulled-down protein PRDX3 (P30048)
[22] = pulled-down protein PREP (P48147)
[23] = pulled-down protein PRPS1 (B1ALA9)
[24] = pulled-down protein RNF20 (Q5VTR2)
[25] = pulled-down protein ROCK2 (E9PF63)
[26] = pulled-down protein RPL24 (C9JXB8)
[27] = pulled-down protein SEPT7 (G3V1Q4)
[28] = pulled-down protein SERBP1 (Q8NC51)
[29] = pulled-down protein SH3PXD2B (A1X283)
[30] = pulled-down protein SLC25A5 (P05141)
[31] = pulled-down protein SLK (Q9H2G2)
[32] = pulled-down protein SMNDC1 (O75940)
[33] = pulled-down protein SUGT1 (Q9Y2Z0)
[34] = pulled-down protein THOP1 (P52888)
[35] = pulled-down protein TIPRL (O75663)
[36] = pulled-down protein TMPO (P42166)
[37] = pulled-down protein TUBB2B (Q9BVA1)
[38] = pulled-down protein TUFM (P49411)
[39] = pulled-down protein TXN (P10599)
[40] = pulled-down protein U2SURP (E7ET15)
[41] = pulled-down protein UQCRC1 (P31930)
[42] = pulled-down protein VIM (P08670)
[43] = pulled-down protein XPO1 (O14980)
[44] = pulled-down protein YEATS4 (F8W0J4)
[45] = pulled-down protein ZC3H4 (M0QY97)

probe 8: H4K5acK8ac peptide probe with photo‐arginine R(dz) and K(biotin) (SGRGKGGKGLGKGGK; photo-arginine R(dz) at 3; acetyl-lysine at 5; acetyl-lysine at 8; K(biotin) at 15)
B6 log2 (H4K5ac8ac/H4K5) (pulled-down protein EZR (E7EQR4)): 0.5872 | A6 log2 (H4K5ac8ac/H4K5) [1]: 0.05077 | B6 log2 (H4K5ac8ac/H4K5) [1]: 0.8339 | A6 log2 (H4K5ac8ac/H4K5) [2]: 0.4487 | B6 log2 (H4K5ac8ac/H4K5) [2]: 0.9654 | A6 log2 (H4K5ac8ac/H4K5) [3]: 0.5624 | B6 log2 (H4K5ac8ac/H4K5) [3]: 1.039 | A6 log2 (H4K5ac8ac/H4K5) [4]: 0.9255 | B6 log2 (H4K5ac8ac/H4K5) [4]: 0.6778 | A6 log2 (H4K5ac8ac/H4K5) [5]: 0.4719 | B6 log2 (H4K5ac8ac/H4K5) [5]: 0.6262 | A6 log2 (H4K5ac8ac/H4K5) [6]: 0.5921 | B6 log2 (H4K5ac8ac/H4K5) [6]: 0.6614 | A6 log2 (H4K5ac8ac/H4K5) [7]: 0.1218 | B6 log2 (H4K5ac8ac/H4K5) [7]: 1.07 | A6 log2 (H4K5ac8ac/H4K5) [8]: 0.4319 | B6 log2 (H4K5ac8ac/H4K5) [8]: 0.628 | A6 log2 (H4K5ac8ac/H4K5) [9]: -0.2371 | B6 log2 (H4K5ac8ac/H4K5) [9]: 1.076 | A6 log2 (H4K5ac8ac/H4K5) [10]: -0.08023 | B6 log2 (H4K5ac8ac/H4K5) [10]: 0.8519 | A6 log2 (H4K5ac8ac/H4K5) [11]: 0.8853 | B6 log2 (H4K5ac8ac/H4K5) [11]: 0.5454 | A6 log2 (H4K5ac8ac/H4K5) [12]: 0.4814 | B6 log2 (H4K5ac8ac/H4K5) [12]: 2.0452 | A6 log2 (H4K5ac8ac/H4K5) [13]: 0.8034 | B6 log2 (H4K5ac8ac/H4K5) [13]: 0.5747 | A6 log2 (H4K5ac8ac/H4K5) [14]: 1.864 | B6 log2 (H4K5ac8ac/H4K5) [14]: 0.5692 | A6 log2 (H4K5ac8ac/H4K5) [15]: 0.9501 | B6 log2 (H4K5ac8ac/H4K5) [15]: 0.5852 | A6 log2 (H4K5ac8ac/H4K5) [16]: -0.6594 | B6 log2 (H4K5ac8ac/H4K5) [16]: 1.242 | A6 log2 (H4K5ac8ac/H4K5) [17]: 0.5482 | B6 log2 (H4K5ac8ac/H4K5) [17]: 0.5681 | A6 log2 (H4K5ac8ac/H4K5) [18]: 0.7266 | B6 log2 (H4K5ac8ac/H4K5) [18]: 0.6378 | A6 log2 (H4K5ac8ac/H4K5) [19]: 0.6997 | B6 log2 (H4K5ac8ac/H4K5) [19]: 0.7142 | A6 log2 (H4K5ac8ac/H4K5) [20]: 0.4131 | B6 log2 (H4K5ac8ac/H4K5) [20]: 0.5572 | A6 log2 (H4K5ac8ac/H4K5) [21]: 0.2174 | B6 log2 (H4K5ac8ac/H4K5) [21]: 0.6425 | A6 log2 (H4K5ac8ac/H4K5) [22]: 0.9426 | B6 log2 (H4K5ac8ac/H4K5) [22]: 0.9988 | A6 log2 (H4K5ac8ac/H4K5) [23]: 0.3703 | B6 log2 (H4K5ac8ac/H4K5) [23]: 0.6924 | A6 log2 (H4K5ac8ac/H4K5) [24]: 0.2058 | B6 log2 (H4K5ac8ac/H4K5) [24]: 1.917 | A6 log2 (H4K5ac8ac/H4K5) [25]: 0.5783 | B6 log2 (H4K5ac8ac/H4K5) [25]: 0.8707 | A6 log2 (H4K5ac8ac/H4K5) [26]: -1.085 | B6 log2 (H4K5ac8ac/H4K5) [26]: 0.6319 | A6 log2 (H4K5ac8ac/H4K5) [27]: 0.404 | B6 log2 (H4K5ac8ac/H4K5) [27]: 1.872 | A6 log2 (H4K5ac8ac/H4K5) [28]: 0.7316 | B6 log2 (H4K5ac8ac/H4K5) [28]: 0.5964 | A6 log2 (H4K5ac8ac/H4K5) [29]: 0.8304 | B6 log2 (H4K5ac8ac/H4K5) [29]: 0.5788 | A6 log2 (H4K5ac8ac/H4K5) [30]: 0.5514 | B6 log2 (H4K5ac8ac/H4K5) [30]: 0.5877 | A6 log2 (H4K5ac8ac/H4K5) [31]: 0.3398 | B6 log2 (H4K5ac8ac/H4K5) [31]: 0.9615 | A6 log2 (H4K5ac8ac/H4K5) [32]: 0.6849 | B6 log2 (H4K5ac8ac/H4K5) [32]: 0.8242 | A6 log2 (H4K5ac8ac/H4K5) [33]: 0.8993 | B6 log2 (H4K5ac8ac/H4K5) [33]: 0.8405 | A6 log2 (H4K5ac8ac/H4K5) [34]: 0.4884 | B6 log2 (H4K5ac8ac/H4K5) [34]: 0.5905 | A6 log2 (H4K5ac8ac/H4K5) [35]: 0.6781 | B6 log2 (H4K5ac8ac/H4K5) [35]: 0.7898 | A6 log2 (H4K5ac8ac/H4K5) [36]: 0.9296 | B6 log2 (H4K5ac8ac/H4K5) [36]: 0.7162 | A6 log2 (H4K5ac8ac/H4K5) [37]: 0.3511 | B6 log2 (H4K5ac8ac/H4K5) [37]: 0.679 | A6 log2 (H4K5ac8ac/H4K5) [38]: 0.744 | B6 log2 (H4K5ac8ac/H4K5) [38]: 0.6748 | A6 log2 (H4K5ac8ac/H4K5) [39]: 1.055 | B6 log2 (H4K5ac8ac/H4K5) [39]: 0.9516 | A6 log2 (H4K5ac8ac/H4K5) [40]: -0.3687 | B6 log2 (H4K5ac8ac/H4K5) [40]: 1.451 | A6 log2 (H4K5ac8ac/H4K5) [41]: 0.6791 | B6 log2 (H4K5ac8ac/H4K5) [41]: 0.7579 | A6 log2 (H4K5ac8ac/H4K5) [42]: 0.6046 | B6 log2 (H4K5ac8ac/H4K5) [42]: 0.5917 | A6 log2 (H4K5ac8ac/H4K5) [43]: 0.481 | B6 log2 (H4K5ac8ac/H4K5) [43]: 0.5985 | A6 log2 (H4K5ac8ac/H4K5) [44]: 2.181 | B6 log2 (H4K5ac8ac/H4K5) [44]: 2.927 | A6 log2 (H4K5ac8ac/H4K5) [45]: -0.08627 | B6 log2 (H4K5ac8ac/H4K5) [45]: 1.141
